The results in this text go back to US20160115467A1 (Biogen, published 2016).

Chains of the proteins cited; added tags and fusions are not shown. Lines headed by an entry give the natural chain unless they say otherwise; changes in a name come on top.
UniProt P08514: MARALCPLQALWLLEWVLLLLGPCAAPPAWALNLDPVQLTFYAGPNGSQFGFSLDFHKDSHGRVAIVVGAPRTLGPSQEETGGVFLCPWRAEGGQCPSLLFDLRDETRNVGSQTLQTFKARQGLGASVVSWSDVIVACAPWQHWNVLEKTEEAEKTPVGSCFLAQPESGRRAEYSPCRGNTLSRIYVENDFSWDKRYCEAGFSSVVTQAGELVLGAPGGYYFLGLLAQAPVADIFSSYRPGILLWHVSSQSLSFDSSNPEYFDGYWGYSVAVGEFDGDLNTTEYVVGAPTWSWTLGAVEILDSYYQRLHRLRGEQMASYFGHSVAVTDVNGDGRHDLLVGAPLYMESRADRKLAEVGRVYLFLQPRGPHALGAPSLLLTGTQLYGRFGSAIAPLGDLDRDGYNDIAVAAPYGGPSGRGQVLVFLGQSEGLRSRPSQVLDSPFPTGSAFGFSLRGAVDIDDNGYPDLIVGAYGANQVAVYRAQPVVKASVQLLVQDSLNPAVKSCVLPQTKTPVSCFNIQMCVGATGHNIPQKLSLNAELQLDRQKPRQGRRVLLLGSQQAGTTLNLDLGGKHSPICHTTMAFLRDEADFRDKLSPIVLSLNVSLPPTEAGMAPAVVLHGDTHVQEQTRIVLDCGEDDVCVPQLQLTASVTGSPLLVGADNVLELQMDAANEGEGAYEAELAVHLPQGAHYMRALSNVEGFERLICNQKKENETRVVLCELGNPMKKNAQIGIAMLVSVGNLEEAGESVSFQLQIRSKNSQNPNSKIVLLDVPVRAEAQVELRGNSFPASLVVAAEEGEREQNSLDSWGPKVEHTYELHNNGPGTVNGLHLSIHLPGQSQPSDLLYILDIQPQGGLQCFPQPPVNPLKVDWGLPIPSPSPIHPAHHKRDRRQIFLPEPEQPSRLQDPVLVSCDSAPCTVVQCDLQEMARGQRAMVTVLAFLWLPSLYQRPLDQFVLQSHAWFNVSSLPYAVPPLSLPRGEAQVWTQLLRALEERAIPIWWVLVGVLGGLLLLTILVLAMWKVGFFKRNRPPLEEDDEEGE

The assay deals with T1, human GPIIb/IIIa on human platelets (human, UniProt P08514 32-1039; P05106 27-788).
T1 construct: Native receptor on gel-purified human platelets or platelets in diluted human whole blood; also called platelets in human whole blood
In words: flow cytometry, hybridoma supernatant on human platelets. For orientation: A flow cytometer gives signals particle by particle.

No constants are given. Whether binding was seen depends on the method and setting. Some results given as binding are weak or reduced against the parent protein; the word gives no strength.

B1: 34D10 (antibody, V domains shown)
VH: EVKLVESGGGLVKPGGSLKLSCAASGFTFSAYAMSWVRQTPEKRLEWVASISSGGTTYYPDSVKRRFTISRDNARNILYLQMSSLRSEDTAMYYCTRGGDYGYALDYWGQGTSVTVSS
VL: ENVLTQSPAIMSASLGEKVTMSCRASSSVNYMYWYQQKSDASPKLWIYYTSNLAPGVPARFSGSGSGNSYSLTISSMEGEDAATYYCQQFSSSPWTFGGGTKLEIKR
notes: Mouse monoclonal from BALB/c hybridoma, tested as hybridoma supernatant (detected with anti-mouse IgG); also called monoclonal antibody 34D10; 34D10 antibody
As to B1, the binding entry is “binds”.

B2: 1H6 (antibody, V domains shown)
VH: QVQLQQSGAELVRPGTSVKVSCKASGYAFTNYLIEWVKQRPGQGLEWIGVINPGSGGTNYNEKFKGKATLTADKSSSTAYMHLSSLTSDDSAVYFCARGRYEWYFDVWGAGTTVTVSS
VL: DIQMTQTTSSLSASLGDRVTISCRASQDITNYLNWYQRKPDGTVKLLIYYTSRLHSGVPSRFSGSGSGTDYSLTISNLEQEDIATYFCQQGYTLPYTFGGGTKLEIKR
notes: Mouse monoclonal from BALB/c hybridoma, tested as hybridoma supernatant; also called 1H6 antibody
For B2, the binding entry is on record as “binds”.
